Source: PMC7272611
Results are given in words; binding and its absence hold for the method and conditions named. Binding seen in cells or lysates may run through a third protein. A yes stands for co-enrichment or nearness to the bait. Other partners may have been found.

Sequences of proteins named here, by UniProt entry; tags and fusion partners are left off. A change or cut given only in a name is not applied to a line headed by its entry.
UniProt Q8SWX0: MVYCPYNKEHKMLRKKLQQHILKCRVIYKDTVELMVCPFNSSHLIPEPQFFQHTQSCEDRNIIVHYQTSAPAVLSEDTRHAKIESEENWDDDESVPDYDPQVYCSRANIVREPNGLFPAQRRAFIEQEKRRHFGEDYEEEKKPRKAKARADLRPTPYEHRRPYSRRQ
UniProt O97159: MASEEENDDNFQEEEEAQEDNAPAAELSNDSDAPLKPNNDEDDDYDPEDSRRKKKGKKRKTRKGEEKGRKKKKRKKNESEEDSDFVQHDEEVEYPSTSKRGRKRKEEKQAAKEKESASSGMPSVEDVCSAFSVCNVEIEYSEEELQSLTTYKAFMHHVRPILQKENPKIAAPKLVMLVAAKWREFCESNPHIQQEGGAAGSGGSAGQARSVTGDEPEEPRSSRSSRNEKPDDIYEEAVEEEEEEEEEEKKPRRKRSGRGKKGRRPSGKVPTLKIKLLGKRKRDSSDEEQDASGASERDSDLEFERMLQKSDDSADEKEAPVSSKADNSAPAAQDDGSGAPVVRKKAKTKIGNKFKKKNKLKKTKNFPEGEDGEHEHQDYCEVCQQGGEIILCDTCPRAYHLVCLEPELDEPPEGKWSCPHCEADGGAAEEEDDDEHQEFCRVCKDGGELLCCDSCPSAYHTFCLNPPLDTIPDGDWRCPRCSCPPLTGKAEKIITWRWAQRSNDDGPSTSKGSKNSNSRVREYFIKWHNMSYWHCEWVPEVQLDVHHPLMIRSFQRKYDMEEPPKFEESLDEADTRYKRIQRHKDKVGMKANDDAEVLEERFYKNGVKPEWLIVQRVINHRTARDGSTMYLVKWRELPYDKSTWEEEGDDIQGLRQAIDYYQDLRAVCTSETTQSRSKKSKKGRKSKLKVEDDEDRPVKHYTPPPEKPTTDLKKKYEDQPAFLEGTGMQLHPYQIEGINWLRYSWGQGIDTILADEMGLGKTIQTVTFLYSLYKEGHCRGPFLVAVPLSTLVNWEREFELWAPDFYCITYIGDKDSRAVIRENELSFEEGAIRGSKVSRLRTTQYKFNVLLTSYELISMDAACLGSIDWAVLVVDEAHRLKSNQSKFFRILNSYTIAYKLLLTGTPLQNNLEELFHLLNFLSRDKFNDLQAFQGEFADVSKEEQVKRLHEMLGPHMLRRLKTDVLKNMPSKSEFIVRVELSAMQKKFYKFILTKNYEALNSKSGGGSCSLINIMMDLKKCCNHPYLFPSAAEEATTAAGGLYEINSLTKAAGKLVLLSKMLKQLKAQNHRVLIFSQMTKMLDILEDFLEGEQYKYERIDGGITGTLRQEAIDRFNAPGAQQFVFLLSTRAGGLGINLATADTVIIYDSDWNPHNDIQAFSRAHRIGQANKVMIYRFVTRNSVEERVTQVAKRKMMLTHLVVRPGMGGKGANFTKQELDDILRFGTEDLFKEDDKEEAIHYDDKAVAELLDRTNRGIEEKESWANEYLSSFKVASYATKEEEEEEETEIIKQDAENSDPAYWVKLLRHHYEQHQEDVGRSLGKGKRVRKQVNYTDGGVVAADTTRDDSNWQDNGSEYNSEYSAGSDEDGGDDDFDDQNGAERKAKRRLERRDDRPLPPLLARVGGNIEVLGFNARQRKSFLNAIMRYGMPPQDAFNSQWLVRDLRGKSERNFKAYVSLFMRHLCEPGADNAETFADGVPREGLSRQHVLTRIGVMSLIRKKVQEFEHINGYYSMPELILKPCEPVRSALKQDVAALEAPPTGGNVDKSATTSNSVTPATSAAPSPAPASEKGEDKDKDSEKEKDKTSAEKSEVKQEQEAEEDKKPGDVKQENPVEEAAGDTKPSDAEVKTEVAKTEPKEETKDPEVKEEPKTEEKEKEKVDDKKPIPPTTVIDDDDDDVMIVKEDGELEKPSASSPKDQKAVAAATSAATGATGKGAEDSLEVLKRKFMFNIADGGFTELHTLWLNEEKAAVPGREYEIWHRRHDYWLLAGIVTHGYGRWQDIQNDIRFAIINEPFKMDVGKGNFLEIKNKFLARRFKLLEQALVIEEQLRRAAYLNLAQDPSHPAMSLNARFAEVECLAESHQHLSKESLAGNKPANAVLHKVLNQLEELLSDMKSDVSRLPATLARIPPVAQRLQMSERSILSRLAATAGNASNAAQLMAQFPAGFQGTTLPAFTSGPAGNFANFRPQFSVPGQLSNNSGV
UniProt Q94517: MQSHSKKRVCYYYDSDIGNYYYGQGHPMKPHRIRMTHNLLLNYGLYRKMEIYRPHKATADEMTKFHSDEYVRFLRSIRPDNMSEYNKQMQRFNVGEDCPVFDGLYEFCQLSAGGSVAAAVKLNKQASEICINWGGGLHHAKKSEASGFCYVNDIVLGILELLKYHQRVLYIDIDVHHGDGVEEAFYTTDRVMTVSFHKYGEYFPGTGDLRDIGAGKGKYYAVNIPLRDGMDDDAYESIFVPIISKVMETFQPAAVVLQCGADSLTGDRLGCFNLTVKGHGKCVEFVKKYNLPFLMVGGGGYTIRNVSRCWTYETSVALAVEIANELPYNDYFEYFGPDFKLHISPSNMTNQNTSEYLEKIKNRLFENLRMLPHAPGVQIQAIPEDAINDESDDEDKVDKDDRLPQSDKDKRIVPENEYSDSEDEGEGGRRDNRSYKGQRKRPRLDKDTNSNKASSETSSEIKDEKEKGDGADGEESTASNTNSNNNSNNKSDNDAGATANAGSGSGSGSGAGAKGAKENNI

B1: Piwi (protein, UniProt Q9VKM1 1-843)
chain: MADDQGRGRRRPLNEDDSSTSRGSGDGPRVKVFRGSSSGDPRADPRIEASRERRALEEAPRREGGPTERKPWGDQYDYLNTRPAELVSKKGTDGVPVMLQTNFFRLKTKPEWRIVHYHVEFEPSIENPRVRMGVLSNHANLLGSGYLFDGLQLFTTRKFEQEITVLSGKSKLDIEYKISIKFVGFISCAEPRFLQVLNLILRRSMKGLNLELVGRNLFDPRAKIEIREFKMELWPGYETSIRQHEKDILLGTEITHKVMRTETIYDIMRRCSHNPARHQDEVRVNVLDLIVLTDYNNRTYRINDVDFGQTPKSTFSCKGRDISFVEYYLTKYNIRIRDHNQPLLISKNRDKALKTNASELVVLIPELCRVTGLNAEMRSNFQLMRAMSSYTRMNPKQRTDRLRAFNHRLQNTPESVKVLRDWNMELDKNVTEVQGRIIGQQNIVFHNGKVPAGENADWQRHFRDQRMLTTPSDGLDRWAVIAPQRNSHELRTLLDSLYRAASGMGLRIRSPQEFIIYDDRTGTYVRAMDDCVRSDPKLILCLVPNDNAERYSSIKKRGYVDRAVPTQVVTLKTTKNRSLMSIATKIAIQLNCKLGYTPWMIELPLSGLMTIGFDIAKSTRDRKRAYGALIASMDLQQNSTYFSTVTECSAFDVLANTLWPMIAKALRQYQHEHRKLPSRIVFYRDGVSSGSLKQLFEFEVKDIIEKLKTEYARVQLSPPQLAYIVVTRSMNTRFFLNGQNPPPGTIVDDVITLPERYDFYLVSQQVRQGTVSPTSYNVLYSSMGLSPEKMQKLTYKMCHLYYNWSGTTRVPAVCQYAKKLATLVGTNLHSIPQNALEKKFYYL

target: GST-Gtsf1 (Drosophila) (UniProt Q8SWX0); experiment: affinity purification with mass spectrometry; pulldown with recombinant GST-Gtsf1 as bait in nuclear lysates of cultured OSCs, GST as control, followed by mass spectrometry; only the target purified

binding, binds:
Mi-2 (from UniProt O97159 1-1982)
Rpd3 (from UniProt Q94517 1-521)
B1
